# Taken from: PubChem BioAssay AID1508597 (Cure First, 2020)
# Test: 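Knock-downs altering ovarian cancer cell survival with or without PARP inhibitor rucaparib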 (primary screen)
# System: human ovarian carcinoma lines grown from tumours: OCI-P5x (papillary serous) and OCI-C5x (clear cell)
# Reagents: siRNA pool against human genes, 1.25 pmol siRNA per well
# Timing: 72 h or 96 h, depending on the cell culture
# Challenge: rucaparib 20 µM (about IC30) or vehicle, present until read-out
# Rucaparib or vehicle: Vehicle
# Cell line: OCI-P5x (serous)
# Measured: 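ATP luminescence measured at 72 or 96 h according to the culture, then normalised and expressed as percent viability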
# Reading the numbers: viability, normalised: higher = more viable cells remaining
# Rule for the call: 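Active when normalised viability falls below 80 percent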
# Calls: active = viability under 80%; inactive = viability 80% or more
# This is a random part of the about 2,100 reagents, under one of the conditions tested. 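Calls flag viability under 80% in either arm, not effects specific to rucaparib; the reference for percent is not stated.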 Some reagents were tested in more than one well and are listed for each. Not stated in the record: the 100% reference.
gene,technical replicate,"viability, normalised (%)",outcome
BRPF3 (bromodomain and PHD finger containing 3),1,72.1,active
BRPF3 (bromodomain and PHD finger containing 3),2,73.9,active
BRPF3 (bromodomain and PHD finger containing 3),3,74.6,active
JMJD8 (jumonji domain containing 8),1,75.6,active
JMJD8 (jumonji domain containing 8),2,78.2,active
JMJD8 (jumonji domain containing 8),3,131,inactive
EP300 (EP300 lysine acetyltransferase),1,87.5,inactive
EP300 (EP300 lysine acetyltransferase),1,58.5,active
EP300 (EP300 lysine acetyltransferase),2,63.7,active
EP300 (EP300 lysine acetyltransferase),2,91.3,inactive
EP300 (EP300 lysine acetyltransferase),3,70.5,active
EP300 (EP300 lysine acetyltransferase),3,65,active

Next part; the last 2 above are carried over.
gene,technical replicate,"viability, normalised (%)",outcome
EP300 (EP300 lysine acetyltransferase),3,70.5,active
EP300 (EP300 lysine acetyltransferase),3,65,active
IFIH1 (interferon induced with helicase C domain 1),1,58.9,active
IFIH1 (interferon induced with helicase C domain 1),2,57.6,active
IFIH1 (interferon induced with helicase C domain 1),3,46.1,active
PLCH2 (phospholipase C eta 2),1,63.4,active
PLCH2 (phospholipase C eta 2),2,81.6,inactive
PLCH2 (phospholipase C eta 2),3,80.5,inactive
DHX40 (DEAH-box helicase 40),1,38.6,active
DHX40 (DEAH-box helicase 40),2,44.5,active
DHX40 (DEAH-box helicase 40),3,44.7,active
RALB (RAS like proto-oncogene B),1,62.5,active
RALB (RAS like proto-oncogene B),2,57.6,active
RALB (RAS like proto-oncogene B),3,52.2,active
